Results published in patent publication US20040048377A1.
No constants are given. Whether binding was seen depends on the method and setting. Binding seen in cells or lysates may run through a third protein. Some binding calls cover weakened binding; strength is not graded here.

The chains behind the UniProt entries cited, without tags or fusion partners.
UniProt P47239: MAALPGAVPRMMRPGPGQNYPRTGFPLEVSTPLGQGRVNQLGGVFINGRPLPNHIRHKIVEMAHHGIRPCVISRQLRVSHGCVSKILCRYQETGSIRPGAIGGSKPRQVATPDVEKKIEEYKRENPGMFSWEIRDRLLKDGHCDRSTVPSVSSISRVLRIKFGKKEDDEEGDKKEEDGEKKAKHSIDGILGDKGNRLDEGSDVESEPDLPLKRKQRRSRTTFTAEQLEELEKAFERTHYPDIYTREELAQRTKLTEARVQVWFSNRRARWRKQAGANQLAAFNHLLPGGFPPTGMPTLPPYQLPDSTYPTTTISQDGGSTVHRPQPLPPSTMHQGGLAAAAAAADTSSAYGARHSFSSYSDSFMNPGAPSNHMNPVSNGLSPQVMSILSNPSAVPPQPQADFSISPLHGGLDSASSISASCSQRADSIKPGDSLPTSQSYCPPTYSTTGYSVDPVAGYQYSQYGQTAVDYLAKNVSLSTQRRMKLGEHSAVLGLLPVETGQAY
UniProt P16371: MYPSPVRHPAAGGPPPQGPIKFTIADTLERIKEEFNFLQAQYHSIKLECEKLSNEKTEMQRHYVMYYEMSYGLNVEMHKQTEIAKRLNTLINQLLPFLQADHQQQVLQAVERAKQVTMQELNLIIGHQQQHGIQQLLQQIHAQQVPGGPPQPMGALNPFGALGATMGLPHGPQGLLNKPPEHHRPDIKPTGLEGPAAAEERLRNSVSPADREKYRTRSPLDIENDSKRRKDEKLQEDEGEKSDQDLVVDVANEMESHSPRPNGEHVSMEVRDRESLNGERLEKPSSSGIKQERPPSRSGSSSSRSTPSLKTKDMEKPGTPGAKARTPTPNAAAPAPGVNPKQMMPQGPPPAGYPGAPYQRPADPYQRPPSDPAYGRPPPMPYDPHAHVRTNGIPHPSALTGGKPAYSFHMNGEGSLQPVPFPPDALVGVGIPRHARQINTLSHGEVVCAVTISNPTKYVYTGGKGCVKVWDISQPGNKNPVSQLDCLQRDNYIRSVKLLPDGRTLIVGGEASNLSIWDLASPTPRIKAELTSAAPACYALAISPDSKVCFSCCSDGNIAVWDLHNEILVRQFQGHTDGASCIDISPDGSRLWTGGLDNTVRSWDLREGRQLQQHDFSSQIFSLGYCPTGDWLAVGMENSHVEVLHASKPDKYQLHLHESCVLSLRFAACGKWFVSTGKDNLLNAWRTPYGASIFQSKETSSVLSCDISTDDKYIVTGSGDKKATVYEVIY

Columns and labels:
[1] = target: T1, Nkx6.1 (full-length, rNkx6.1) (rat) (UniProt O35762); test: GST co-precipitation, GST-Gro on glutathione-sepharose beads, 35S-labelled Nkx protein
T1 sequence (looked up): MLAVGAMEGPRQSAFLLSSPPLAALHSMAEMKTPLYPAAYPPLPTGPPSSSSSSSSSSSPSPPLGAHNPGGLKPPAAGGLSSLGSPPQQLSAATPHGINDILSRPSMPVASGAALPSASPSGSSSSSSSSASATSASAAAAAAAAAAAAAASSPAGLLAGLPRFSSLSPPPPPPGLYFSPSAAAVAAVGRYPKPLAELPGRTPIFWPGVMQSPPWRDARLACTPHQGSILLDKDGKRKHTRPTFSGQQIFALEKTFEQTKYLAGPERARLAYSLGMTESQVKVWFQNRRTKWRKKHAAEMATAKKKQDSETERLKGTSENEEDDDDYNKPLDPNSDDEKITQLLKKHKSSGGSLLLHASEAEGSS

[2] = target: T2, Nkx2.9 (full-length, mNkx2.9) (mouse) (UniProt O70584); test: as above
T2 sequence (looked up): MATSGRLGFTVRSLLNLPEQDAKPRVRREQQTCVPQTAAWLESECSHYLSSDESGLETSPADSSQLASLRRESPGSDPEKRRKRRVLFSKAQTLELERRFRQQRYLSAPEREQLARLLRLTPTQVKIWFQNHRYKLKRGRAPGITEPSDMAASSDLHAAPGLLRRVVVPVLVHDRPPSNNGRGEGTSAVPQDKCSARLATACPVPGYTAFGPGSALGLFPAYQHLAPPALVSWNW

Grg5 (mGrg5) (mouse) = target: T3, Grg5 (mGrg5) (mouse) (UniProt P63002); test: GST co-precipitation, 35S-labelled Grg5
T3 sequence (looked up): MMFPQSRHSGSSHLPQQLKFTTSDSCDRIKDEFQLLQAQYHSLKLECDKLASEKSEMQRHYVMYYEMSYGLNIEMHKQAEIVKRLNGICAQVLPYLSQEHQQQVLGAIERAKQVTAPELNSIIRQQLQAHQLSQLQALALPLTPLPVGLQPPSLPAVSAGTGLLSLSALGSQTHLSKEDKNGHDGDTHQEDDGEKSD

Pax7 (mPax7) (mouse) = Pax7 (mPax7) (mouse) (UniProt P47239); test: GST co-precipitation, GST-Gro on glutathione-sepharose beads, 35S-labelled class I protein
Dbx1 (mDbx1) (mouse) = target: T4, Dbx1 (mDbx1) (mouse) (UniProt P52950); test: as above
T4 sequence (looked up): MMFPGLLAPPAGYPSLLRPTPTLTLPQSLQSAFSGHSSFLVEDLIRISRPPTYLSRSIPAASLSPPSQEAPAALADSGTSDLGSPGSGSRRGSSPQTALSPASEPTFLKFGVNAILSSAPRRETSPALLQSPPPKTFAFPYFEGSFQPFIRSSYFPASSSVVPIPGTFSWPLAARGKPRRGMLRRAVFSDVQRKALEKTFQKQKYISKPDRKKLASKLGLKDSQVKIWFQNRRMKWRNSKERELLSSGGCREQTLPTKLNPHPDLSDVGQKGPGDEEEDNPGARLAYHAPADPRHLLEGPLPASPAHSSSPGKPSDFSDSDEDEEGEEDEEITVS

Measured: binding

GST-Gro fusion protein (glutathione S-transferase fused to Drosophila Groucho) (from UniProt P16371 1-730)
binds: all assays above
